Measurements taken from article PMC12040169 (PLOS Biology, 2025).
The other results are listed elsewhere or left out.

tested on: T1, CTL2-GFP (C. trachomatis L2/434/Bu, GFP-expressing); design: species or system HeLa; Intracellular C. trachomatis growth in HeLa cells, bulk GFP fluorescence relative to DMSO; settings: bulk GFP, single well; 28.5 h, 10 µM; inhibitor
T1 construct: L2/434/Bu, GFP-expressing

| Structure (SMILES) | % of control remaining [%] |
| --- | --- |
| Cc1cc(=O)oc2cc(OCC(=O)Nc3cccc(C(=O)O)c3)ccc12 [CBK287058] | 139.944 |
| Cc1ccc2nc(CNC(=O)CN(C)C3CCNCC3)cn2c1 [CBK307228] | 84.5703 |
| COc1ccc(SCC(=O)Nc2nccs2)cc1 [CBK287751] | 132.54 |
| N#CC(C(=O)NC1CCCCC1)C(=O)c1nn(-c2ccccc2)c2c1CSc1ccccc1-2 (stereo not shown) [CBK017690] | 109.275 |
| CC(Oc1ccccc1)C(=O)NCCN1CCOCC1 (stereo not shown) [CBK263812] | 103.292 |
| Cc1ccc(C(=O)C(OC(=O)CN2C(=O)c3cccc([N+](=O)[O-])c3C2=O)c2ccccc2)cc1C (stereo not shown) [CBK265519] | 117.461 |
| COCC(=O)N1C[C@@H](c2ccc(F)c(F)c2)[C@@]2(CCCC(=O)N2)C1 [CBK283358] | 91.0862 |
| O=C(CC(Nc1ccc2ccccc2c1)c1ccncc1)c1ccc(Br)cc1 (stereo not shown) [CBK262209] | 88.702 |
| CC(C)NC(=O)Cn1c(=O)n(Cc2cccs2)c2ncccc21 [CBK283900] | 134.25 |
| CC(NC(=O)C1CCN(Cc2nccs2)CC1)c1ccc(F)cc1 (stereo not shown) [CBK148056] | 161.554 |
| CN(C)c1ccc(Nc2cc(-c3ccc(OCc4ccccc4)cc3)ncn2)cc1 [CBK090941] | 94.2118 |
| O=C(Nc1ccccc1[N+](=O)[O-])c1cc(S(=O)(=O)NCc2ccco2)ccc1Cl [CBK264557] | 108.429 |
| COc1ccc(CCNC(=O)N2CCC(C(=O)O)CC2)cc1 [CBK156073] | 66.6676 |
| CC(CCCC(C)(C)O)NCCO (stereo not shown) [CBK262340] | 85.1771 |
| COc1cccc2ncn(CCNS(C)(=O)=O)c(=O)c12 [CBK306583] | 159.295 |
| CC(C)(CNC(=O)c1ccc(=O)n(CC(=O)Nc2ccc(F)cc2)c1)c1cccc(F)c1 [CBK285955] | 130.579 |
| O=C(CCN1CCN(CCO)CC1)Nc1ccc(Cl)cc1 [CBK033787] | 105.42 |
| c1ccc(-c2cnc3c(N4CCCC4)nc(-c4cccnc4)cn23)cc1 [CBK092245] | 110.682 |
| O=C(CSC1=NC(=O)C(c2ccccc2)C(=O)N1)NC1CCCCC1 (stereo not shown) [CBK263804] | 124.861 |
| COc1ccc2c3c1CCC(C)(C)C3COC2CCN1CCN(c2ccc(F)cc2)CC1 (stereo not shown) [CBK024047C] | 97.0449 |
| O=C(c1ccncc1)N1C2CCC1CC(c1ccc(F)cc1)C2 (stereo not shown) [CBK283763] | 111.286 |
| Cc1ccc(-c2nccnc2OCCc2c[nH]c3ccccc23)cc1C [CBK106850] | 89.1631 |
| O=S(=O)(NCc1ccccc1)c1cccc2nonc12 [CBK265692] | 120.771 |
| CCC(CC)C(=O)N1CC[C@H]2NC(=O)N(Cc3ccccc3)C(=O)[C@H]21 [CBK289291] | 114.226 |
| O=C(O)c1cn(C2CC2)c2cc(N3CCN(C(=O)Cc4ccsc4)CC3)c(F)cc2c1=O [CBK297142] | 34.2736 |
| CS(=O)(=O)Nc1cc(-c2noc([C@@H]3CCCN3Cc3ccccn3)n2)ccn1 [CBK288885] | 134.415 |
| CCOC(=O)c1c(NC(=O)CCC(=O)O)sc2c1CCCCC2 [CBK262648] | 100 |

| Structure (SMILES) | % of control remaining [%] |
| --- | --- |
| Cc1ccsc1C(=O)N1CCC(c2nn(C)c3ncccc23)CC1 [CBK285102] | 120.506 |
| O=C(c1ccccc1Cl)N1CCN(c2ccc([N+](=O)[O-])c(NCc3cccnc3)c2)CC1 [CBK265866] | 90.5269 |
| COCCn1c(SCc2c(C)nc3ccccn23)nc(C)c1C [CBK305212] | 136.138 |
| CC(C)c1ccc(S(=O)(=O)NC(C#N)c2ccccc2)cc1 (stereo not shown) [CBK044403] | 95.6121 |
| O=C(N/N=C/c1ccc([N+](=O)[O-])cc1)c1ccc(O)cc1O [CBK261591] | 99.4102 |
| CC(C)[C@@H](CO)n1c(=O)[nH]c2ncc(-c3ccco3)nc21 [CBK065018] | 107.846 |
| CC(=O)Nc1ccc2nc(NC(=O)c3ccc(C)cc3)sc2c1 [CBK287304] | 139.86 |
| O=C(Nc1ccccc1)N(Cc1nc(-c2ccccc2)no1)C1CCCCC1 [CBK269830] | 123.907 |
| CCCCSc1sc(C(=O)O)c(-c2ccc(Cl)cc2)c1C#N [CBK122551] | 94.2275 |
| O=C1CCC[C@]2(CN(C(=O)C3CC3)C[C@H]2c2ccccc2F)N1 [CBK283357] | 128.559 |
| COc1cc(C)ccc1S(=O)(=O)Nc1cc(OC2CCNCC2)c2occc2c1 [CBK074192C] | 126.465 |
| O=C(O)c1cc(C=Cc2ccc(OC(F)F)cc2)nc2ccccc12 [CBK297532] | 158.888 |
| Cn1ncnc1CCNC(=O)N1CCCN(Cc2cccs2)CC1 [CBK307670] | 78.1275 |
| COc1cc(-c2nnc(CSCc3n[nH]c(=O)[nH]3)o2)cc(OC)c1OC [CBK299814] | 120.747 |
| OCC1CCCN(Cc2c(C3CCCC3)[nH]c3ncccc23)C1 (stereo not shown) [CBK285332] | 164.04 |
| CCCCc1ccc(N2C(=O)CC(Nc3ccc(C(=O)O)cc3)C2=O)cc1 (stereo not shown) [CBK296972] | 92.3882 |
| COc1ccc(C(NC(=O)N(C(C)C)C(C)C)c2nccn2C)cc1 (stereo not shown) [CBK283568] | 87.2626 |
| Cn1cc(C(NC(=O)c2cn3ccsc3n2)C2CC(O)C2)cn1 (stereo not shown) [CBK307428] | 127.193 |
| Cc1c(C(N)=O)sc2ncn(CCc3ccccc3)c(=O)c12 [CBK268492] | 134.37 |
| CCOc1ccc(-c2ccnc(N3CCOC(CN)C3)n2)cc1C(=O)O (stereo not shown) [CBK307644] | 115.543 |
| Clc1ccc(OC/C=C2\Oc3ccc(Cl)cc3C2N2CCOCC2)c(Cl)c1 (stereo not shown) [CBK262753] | 100 |
| Nc1ccc2c(-c3cc(F)cc(F)c3)ccnc2n1 [CBK067638] | 97.5157 |
| CS(=O)(=O)N(Cc1ccco1)Cc1cc2ccccc2nc1O [CBK269434] | 94.4612 |
| Cc1c(CN(C)CC(=O)Nc2cccc(C(F)(F)F)c2)cnn1C [CBK304341] | 114.261 |
| NC(=O)c1ccc(NC(=O)N2CCN(CCN3CCOCC3)CC2)cc1 [CBK155831] | 153.761 |
| CC(C)C[C@@H]1N[C@H](C(=O)NCC2CCOCC2)Cc2c[nH]c3cccc1c23 [CBK289427] | 135.418 |
| O=C(C1=Cc2ccccc2OC1)N1CCC(c2ccncc2)CC1 [CBK282339] | 75.697 |

Among those listed so far, three contain an aryl thioether with sulfur outside any ring.

| Structure (SMILES) | % of control remaining [%] |
| --- | --- |
| COc1ccc(SCC(=O)Nc2nccs2)cc1 [CBK287751] | 132.54 |
| COCCn1c(SCc2c(C)nc3ccccn23)nc(C)c1C [CBK305212] | 136.138 |
| CCCCSc1sc(C(=O)O)c(-c2ccc(Cl)cc2)c1C#N [CBK122551] | 94.2275 |

Carrying on.

| Structure (SMILES) | % of control remaining [%] |
| --- | --- |
| O=C1CCCN1CCCNC(=O)N1CCCC(CO)C1 (stereo not shown) [CBK156063] | 156.42 |
| NC(=O)c1cccnc1-c1nc2ccccc2s1 [CBK287930] | 152.671 |
| Cc1cc(C)c(C)c(S(=O)(=O)N(CCO)CCO)c1C [CBK269082] | 125.446 |
| FC(F)(F)c1nc2ccccc2nc1SCCOc1ccccc1 [CBK103726] | 116.781 |
| O=C(O)c1cccc(-c2cnc(NCC3CC3)c(C(=O)NCC(F)(F)F)c2)c1 [CBK106420] | 98.2081 |
| Cn1nccc1CCC(=O)N1CC[C@H]2NC(=O)c3ccccc3OCCCCC[C@H]2C1 [CBK292028] | 121.455 |
| COc1cccc(C2(NC(=O)CCn3nccc3C)CCCC2)c1 [CBK283601] | 107.792 |
| CCOC(=O)CC1C(=O)NCCN1C/C=C/c1ccccc1 (stereo not shown) [CBK269922] | 121.697 |
| CCn1cc(S(=O)(=O)NCc2ccc3[nH]c4c(c3c2)CCCC4)cn1 [CBK307225] | 141.459 |
| O=C(NCC1Cc2ccccc2O1)c1ccc(Br)cc1Cl (stereo not shown) [CBK298323] | 95.7868 |
| COc1ccc(CC(=O)N2CCCC(c3nccnc3-c3cccc(C)c3)C2)cc1 (stereo not shown) [CBK286137] | 122.705 |
| O=C(C1CCC1)N1C2CCC1Cn1c(nc3ccccc3c1=O)C2 (stereo not shown) [CBK284453] | 136.481 |
| COc1ccc(NS(=O)(=O)c2ccc(C)cc2)cn1 [CBK010484] | 135.662 |
| COc1cc(C(=O)NN)cc(OC)n1 [CBK012275] | 131.793 |
| Clc1ccc(CN2CCCN(c3nccc(OCC4COc5ccccc5O4)n3)CC2)cc1 (stereo not shown) [CBK084038] | 96.3462 |
| Cc1cc(C)cc(NC(=O)C2CC(=O)N=C(NCc3ccccc3)N2)c1 (stereo not shown) [CBK269054] | 139.89 |
| O=C(CC1NC(=O)N(C2CCCCC2)C1=O)Nc1cccc(CCc2ccncc2)c1 (stereo not shown) [CBK285563] | 135.479 |
| Cc1nnc(SCc2nc3ccccc3c(=O)[nH]2)[nH]1 [CBK267830] | 126.05 |
| CC(=O)Nc1cc2nc3ccccc3nc2cc1NC(C)=O [CBK261018] | 118.364 |
| COC(=O)CN1C(c2ccccc2O)Nc2ccc(Br)cc2C1c1ccccc1 (stereo not shown) [CBK263133] | 114.409 |
| CC(=O)N1CCc2ccc(S(=O)(=O)n3ccc4c(N5CCNCC5)cccc43)cc2C1 [CBK001632C] | 70.8164 |
| Cc1ccc(S(=O)(=O)NCCOc2ccccc2)c(C)c1NS(C)(=O)=O [CBK268210] | 128.423 |
| COc1ccc(OCC(=O)N2CCN(C3CCC(c4ccccc4)CC3)CC2)cc1 (stereo not shown) [CBK263459] | 106.649 |
| c1ccc(C(Oc2nccnc2-c2ccc3c(c2)OCO3)c2ccccc2)cc1 [CBK106707] | 93.5935 |
| COc1cc2c(cc1-c1nccn1CC1CN(C(C)=O)CCO1)CCC2 (stereo not shown) [CBK306850] | 130.156 |

Arranged by count of non-hydrogen atoms (low to high): three of the compounds above.

| Structure (SMILES) | % of control remaining [%] |
| --- | --- |
| NC(=O)c1cccnc1-c1nc2ccccc2s1 [CBK287930] | 152.671 |
| Cn1nccc1CCC(=O)N1CC[C@H]2NC(=O)c3ccccc3OCCCCC[C@H]2C1 [CBK292028] | 121.455 |
| Clc1ccc(CN2CCCN(c3nccc(OCC4COc5ccccc5O4)n3)CC2)cc1 (stereo not shown) [CBK084038] | 96.3462 |
